Laboratory results taken from PMC13534789, “Molecular Glue Degraders Enhance CAPRIN1‐Dependent Lysosomal Degradation of APP and Reduce Amyloid β in Alzheimer's Disease” (Advanced Science, 2026).
Results are given in words; binding and its absence hold for the method and conditions named. Binding seen in cells or lysates may run through a third protein. Some binding calls cover weakened binding; strength is not graded here. For some assays here: Sequences can lack the tags named with a protein.

How the values were obtained:
[1] = biological target: T1, Flag-tagged CAPRIN1 (cytoplasmic activation/proliferation-associated protein 1) (UniProt Q14444); experiment: co-IP; HEK cells co-transfected with HiBiT-APP695 and Flag-tagged CAPRIN1; Flag immunoprecipitation, immunoblot with HiBiT antibodies
T1 sequence: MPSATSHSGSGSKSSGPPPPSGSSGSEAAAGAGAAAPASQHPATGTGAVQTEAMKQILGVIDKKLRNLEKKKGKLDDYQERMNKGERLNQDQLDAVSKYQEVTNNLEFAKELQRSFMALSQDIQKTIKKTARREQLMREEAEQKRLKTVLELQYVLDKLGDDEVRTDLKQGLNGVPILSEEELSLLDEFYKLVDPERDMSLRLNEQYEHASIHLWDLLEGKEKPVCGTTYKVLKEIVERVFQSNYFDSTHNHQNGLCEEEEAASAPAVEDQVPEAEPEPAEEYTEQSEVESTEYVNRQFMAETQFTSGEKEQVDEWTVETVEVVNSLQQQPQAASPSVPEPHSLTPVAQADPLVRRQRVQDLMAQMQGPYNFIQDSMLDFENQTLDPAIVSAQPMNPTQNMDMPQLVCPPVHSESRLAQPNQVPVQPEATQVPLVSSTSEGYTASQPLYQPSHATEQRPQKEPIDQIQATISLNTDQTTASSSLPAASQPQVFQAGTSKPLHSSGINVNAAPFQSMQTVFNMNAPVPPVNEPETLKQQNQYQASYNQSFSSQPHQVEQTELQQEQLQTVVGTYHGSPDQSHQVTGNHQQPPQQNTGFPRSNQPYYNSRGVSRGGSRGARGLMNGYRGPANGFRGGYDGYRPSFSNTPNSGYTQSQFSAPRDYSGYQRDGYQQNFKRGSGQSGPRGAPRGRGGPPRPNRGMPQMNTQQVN

[2] = biological target: T2, CAPRIN1, endogenous in HEK293 cells (human (endogenous in HEK293)) (UniProt Q14444); experiment: co-IP; HEK-APP695WT cells, DMSO or 0043 (10 µM, 24 h); CAPRIN1 immunoprecipitated, APP detected by blot
T2 sequence: T1 sequence

Row | binding [1] | binding [2] | Substance
1 | binds | – | APP695-HiBiT (wild-type amyloid precursor protein, isoform APP695, with HiBiT tag) (from UniProt P05067-4 18-695)
2 | – | binds | APP695 wild type, untagged, in HEK-APP695WT cells (from UniProt P05067-4 18-695)
